In patent US20080275018A1, “ANTIBACTERIAL AMIDE-MACROCYCLES V” (AiCuris GmbH & Co. KG, priority 2005, published 2008):
Structures can show the parent of a compound that is named as a salt. At least one structure is not confirmed: it was looked up by name or label, or the drawing left a doubt.

Biological target: S. aureus 133 Translation
Experiment: S. aureus in vitro transcription-translation assay (firefly luciferase, S30 extract)
Assay type: biochemical
Conditions: 50% inhibition of the translation of firefly luciferase
Excerpt: For the construction of a reporter plasmid which can be used in an in vitro transcription-translation assay from S. aureus the plasmid pBESTluc (Promega Corporation, USA) is used. The E. coli tac promoter present in this plasmid in front of the firefly luciferase is replaced by the capA1 promoter with corresponding Shine-Dalgarno sequence from S. aureus. The primers CAPFor 5′-[…]-[…] GCCA-3′ and CAPRev 5′-[…]-3′ are used for this. The primer CAPFor contains the capA1 promoter, the ribosome binding site and the 5′ region of the luciferase gene. After PCR using pBESTluc as template it is possible to isolate a PCR product which contains the firefly luciferase gene with the fused capA1 promoter. This is, after restriction with ClaI and HindIII, ligated into the vector pBESTluc which has likewise been digested with ClaI and HindIII. The resulting plasmid pla can be replicated in E. coli and be used as template in the S. aureus in vitro transcription-translation test.
Six litres of BHI medium are inoculated with a 250 ml overnight culture of an S. aureus Strain and allowed to grow at 37° C. until the OD600 nm is 2-4. […]
The inhibition of protein biosynthesis of the compounds can be shown in an in vitro transcription-translation assay. […] The activity of the resulting luciferase can be detected by luminescence measurement. […]

NCCC[C@H](NC(=O)[C@@H]1Cc2cccc(c2)-c2ccc(O)c(c2)C[C@H](N)C(=O)N[C@@H](CCCN)C(=O)N1)C(=O)NCCC[C@H](N)CC(=O)NCCN [Example 12, (8S,11S,14S)-14-Amino-N-{(1S)-4-amino-1-[({(4S)-4-amino-6-[(2-aminoethyl)amino]-6-oxohexyl}amino)carbonyl]butyl}-11-(3-aminopropyl)-17-hydroxy-10,13-dioxo-9,12-diazatricyclo[14.3.1.1^2,6]henicosa-1(20),2(21),3,5,16,18-hexaene-8-carboxamide pentahydrochloride]
IC50: 80 nM
